Earlier results, collected in patent US20130267590A1, “RETIGABINE COMPOSITIONS” (Dr. Reddy's Laboratories Limited, priority 2011, published 2013).
Counter-ions that a name gives are not always drawn. At least one compound was matched to its structure with a doubt left.

## CCOC(=O)Nc1ccc(NCc2ccc(F)cc2)cc1N [dihydrochloride salt of retigabine]
  hygroscopicity: hygroscopic
